Measurements taken from publication PMC7862700.
This is a selection; strong and weak results do not stand in their true shares. For some of these results: At the low end of the ranking, values are background and their order means little. This is one part of the list. For some of these results: The exact form of the protein is not confirmed.

Chains of the proteins cited; added tags and fusions are not shown. Lines headed by an entry give the natural chain unless they say otherwise; changes in a name come on top.
UniProt Q00613: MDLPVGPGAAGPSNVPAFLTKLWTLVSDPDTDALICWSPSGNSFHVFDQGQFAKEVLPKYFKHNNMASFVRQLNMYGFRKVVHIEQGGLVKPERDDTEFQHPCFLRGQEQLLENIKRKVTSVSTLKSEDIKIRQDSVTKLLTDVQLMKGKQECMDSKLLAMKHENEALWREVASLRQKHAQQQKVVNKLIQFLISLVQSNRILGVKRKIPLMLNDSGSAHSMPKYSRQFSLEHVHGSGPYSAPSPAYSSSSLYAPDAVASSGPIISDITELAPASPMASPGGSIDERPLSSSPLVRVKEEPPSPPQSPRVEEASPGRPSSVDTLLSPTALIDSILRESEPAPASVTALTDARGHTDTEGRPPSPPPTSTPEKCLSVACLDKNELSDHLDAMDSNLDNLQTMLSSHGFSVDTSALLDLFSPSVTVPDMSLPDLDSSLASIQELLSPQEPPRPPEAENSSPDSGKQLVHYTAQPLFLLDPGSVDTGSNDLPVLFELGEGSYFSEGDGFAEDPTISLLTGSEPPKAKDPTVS

How the values were obtained:
HSF1 = HSF1 (UniProt Q00613); test: DAPPL (digital affinity profiling via proximity ligation, sequencing); details: 10 mM Tris-HCl pH 7.5, 50 mM NaCl, 1 mM DTT, 4% glycerol, room temperature, 30 min; GST-TFs on glutathione beads, 16-mer random dsDNA library, 0.1% …; high values mean tight binding; double strand, one strand shown; scale: fold enrichment (6-mer frequency, TF over GST control)
ELF2 = molecular target: T1, ELF2 (UniProt Q15723); test: as above; details: 10 mM Tris-HCl pH 7.5, 50 mM NaCl, 1 mM DTT, 4% glycerol, room temperature, 30 min; GST-TFs on glutathione beads, 16-mer random dsDNA library, 0.1% …; high values mean tight binding; double strand, one strand shown; scale: fold enrichment (6-mer frequency, TF over GST control)
T1 sequence: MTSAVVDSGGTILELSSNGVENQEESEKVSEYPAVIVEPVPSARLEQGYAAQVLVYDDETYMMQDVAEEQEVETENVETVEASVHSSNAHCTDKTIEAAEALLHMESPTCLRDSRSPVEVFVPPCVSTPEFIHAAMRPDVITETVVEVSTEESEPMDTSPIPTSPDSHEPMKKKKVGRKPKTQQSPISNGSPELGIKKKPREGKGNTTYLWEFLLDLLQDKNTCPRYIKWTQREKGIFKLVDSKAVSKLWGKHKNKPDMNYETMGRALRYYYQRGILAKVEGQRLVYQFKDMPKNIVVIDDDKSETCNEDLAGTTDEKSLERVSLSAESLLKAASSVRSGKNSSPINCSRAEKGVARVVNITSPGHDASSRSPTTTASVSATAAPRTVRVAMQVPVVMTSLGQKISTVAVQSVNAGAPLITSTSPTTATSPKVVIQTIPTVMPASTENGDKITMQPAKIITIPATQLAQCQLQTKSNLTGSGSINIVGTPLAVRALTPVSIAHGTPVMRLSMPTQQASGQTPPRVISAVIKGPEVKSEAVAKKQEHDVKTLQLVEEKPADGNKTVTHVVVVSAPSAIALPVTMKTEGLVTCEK

Sequence | binding signal (HSF1) | binding signal (ELF2)
CACGGT | 0.775 | 0.887
TGAGCA | 0.714 | 0.85
GCGTAA | 0.914 | 0.838
GCTCGG | 0.668 | 0.706
ATCGGC | 0.704 | 0.628
AGACCC | 0.634 | 0.73
GAGCCG | 0.366 | 0.405
GCCGGT | 0.492 | 0.653
CACGTG | 0.562 | 0.58
CGCGAG | 0.584 | 0.505
GGTCGA | 0.707 | 0.696
AAGGAG | 0.318 | 0.343
GACTGA | 0.717 | 0.713
GATGTG | 0.62 | 0.947
GGCCAG | 0.428 | 0.432
CGGACT | 0.66 | 0.866
GTGAGT | 0.138 | 0.125
TACGTG | 0.636 | 0.66
TCGTAA | 1.12 | 0.882
ATCGGA | 0.453 | 0.438
CGCATG | 0.658 | 0.613
AGGTGA | 0.48 | 0.517
GAAGAG | 0.735 | 1.06
TTCGGA | 0.798 | 0.709
CATGTG | 0.685 | 0.786

Sequence | binding signal (HSF1) | binding signal (ELF2)
CTGGAG | 0.798 | 0.65
CGGGCC | 0.552 | 0.743
GACGGT | 0.416 | 0.443
GAGGCA | 0.393 | 0.424
GTGACG | 0.508 | 0.64
AGGAGC | 0.315 | 0.385
GCGGAC | 0.457 | 0.769
CGCCGT | 0.77 | 0.846
AGACCG | 0.395 | 0.505
CGGTAA | 0.873 | 0.986
TTAGAC | 1.1 | 0.81
GGATTG | 0.982 | 0.801
GGTGGC | 0.518 | 0.718
GAGTAT | 0.669 | 0.587
GTAGTA | 0.813 | 0.905
CATGTC | 0.55 | 0.791
AGATCG | 0.561 | 0.464
GGCGAA | 0.799 | 0.698
CACGGG | 0.7 | 0.788
TGTGAG | 0.308 | 0.312
GTGGAC | 0.671 | 0.888
GTCGAG | 0.585 | 0.417
CCGTCG | 0.79 | 0.737
AGTGAT | 0.809 | 0.908
TTGAGT | 0.622 | 0.649

Full records as entered above. Order of values: binding signal (HSF1) | binding signal (ELF2)
GTGGAC is listed as 0.671 | 0.888
TTGAGT is listed as 0.622 | 0.649
